These are yes or no findings as the source states them, for the method shown. Where a sequence is shown, tags or fusion partners need not be part of it.

The target of test [1] is SBP-tagged sjRop1 with mutated putative AIM motif (S. japonicus). In words: pull-down; SBP-tagged sjRop1 or its AIM mutant held on streptavidin beads, incubated with purified Atg8 for 1 h at 4 °C in buffer with 0.05% DDM (25 mM HEPES/KOH pH 7.4, 150 mM NaCl); SDS-PAGE and Coomassie blue staining; both purified.
Test [2] has as its target SBP-tagged full-length S. japonicus Rop1 (S. japonicus). Described as above.

B1: S. pombe Atg8 tagged at the N-terminus with GST (protein, UniProt O94272 1-116)
chain: MRSQFKDDFSFEKRKTESQRIREKYPDRIPVICEKVDKSDIAAIDKKKYLVPSDLTVGQFVYVIRKRIKLSPEKAIFIFIDEILPPTAALMSTIYEEHKSEDGFLYITYSGENTFG
Consider B1, for which the binding entry in test [1] and in test [2] was “no binding” throughout.

B2: S. cerevisiae Atg8 tagged at the N-terminus with His10 (protein, UniProt P38182 1-117)
chain: MKSTFKSEYPFEKRKAESERIADRFKNRIPVICEKAEKSDIPEIDKRKYLVPADLTVGQFVYVIRKRIMLPPEKAIFIFVNDTLPPTAALMSAIYQEHKDKDGFLYVTYSGENTFGR
For the molecule B2, the binding result in test [1] and in test [2] was “no binding” throughout.

The values above are taken from PMC10409813.
